The list shows a part of the results. Values are raw readings; no control value is given beside them.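 First-pass screen: polymyxin B was added at a level that permeabilizes the Salmonella outer membrane while sparing the inner membrane. DMSO wells, with and without polymyxin B, defined maximum growth. Because plates differed from one another, each plate's data were ranked separately and the compounds with the lowest OD600 were carried forward as hits.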
Test system: Salmonella enterica serovar Typhimurium SL1344
Assay: bacterial growth OD600 after 18 h with compound and polymyxin B; higher = more bacterial growth (less inhibition)
Settings: 50 µM, Mueller-Hinton broth

SMILES | bacterial growth OD600 (polymyxin B 0.75 µg/mL) | bacterial growth OD600 (polymyxin B 1 µg/mL)
CN(C)c1ccc(CN2CCOc3ccc(C(C)(O)COc4ccccc4)cc3C2)cc1 (stereo not given) | 0.048 | 
CN(CCc1cn[nH]c1)c1ccc(-c2nc(-c3ccccc3F)no2)cn1 |  | 0.866
CCC1CCCCN1c1ccc(C(=O)N2CCCN(c3ncccn3)CC2)cn1 (stereo not given) | 0.781 | 
O=C(NC1CC(=O)N(CCCc2ccccc2)C1)c1ccncc1 (stereo not given) |  | 0.89
COC(=O)C1CCCCN1C(=O)c1c(OC)cc(=O)n2c1CCN(Cc1ccc(F)cc1F)CC2 (stereo not given) | 0.798 | 
COCCNC(=O)c1ccc(OC2CCN(CC3CC=CCC3)CC2)c(Cl)c1 (stereo not given) |  | 0.971
COc1ccc(C(=O)C2CCCN(Cc3c(F)ccc(F)c3F)C2)c(OC)c1 (stereo not given) |  | 0.801
CCOC(=O)C1CCCN(Cc2nc(Cc3cccc(F)c3)no2)C1 (stereo not given) |  | 0.791
CCC1CCCCN1Cc1nc(Cc2ccccc2Cl)no1 (stereo not given) |  | 0.83
CCN(CC1CCCO1)C(=O)CC1(c2ccccc2)CC(=O)N(CCCOc2cccnc2)C1=O (stereo not given) | 0.854 | 
CCOC(=O)C1CCCN(C(=O)c2coc(COc3cccc(F)c3F)n2)C1 (stereo not given) |  | 0.848
CC(C)CC(=O)Nc1ccnn1C1CCN(Cc2c[nH]nc2-c2ccccc2)CC1 |  | 0.826
COc1ccc(CN2CCC(n3nccc3NC(=O)C(C)(C)C)CC2)c(C)c1C |  | 0.919
O=C(NC1CCOCC1)c1ccc(OC2CCN(Cc3ccccn3)CC2)cc1 |  | 0.917
COc1cccc(-c2nn(-c3ccccc3)cc2CN2CCCC2)c1 |  | 1.1
CN1CCCC(CNC(=O)c2ccc(-c3ccccc3)cc2)C1 (stereo not given) | 0.691 | 
COCCN1CCCC2(CCN(C(=O)C(C)C)C2)C1=O (stereo not given) |  | 0.935
Cc1ccc(OCc2cc(C(=O)NCC(C)(C)N3CCOCC3)no2)cn1 |  | 0.855
COc1ccc(OC)c(CC(=O)NC2CCCN(C3Cc4ccccc4C3)C2)c1 (stereo not given) |  | 1
O=C(CCC1(Cc2ccc(F)cc2)CCC(=O)N1)NCc1ccc(OC(F)(F)F)cc1 (stereo not given) | 0.003 | 

Part of the list above, tab-delimited:
SMILES	bacterial growth OD600 (polymyxin B 0.75 µg/mL)	bacterial growth OD600 (polymyxin B 1 µg/mL)
CCC1CCCCN1c1ccc(C(=O)N2CCCN(c3ncccn3)CC2)cn1 (stereo not given)	0.781	
O=C(NC1CC(=O)N(CCCc2ccccc2)C1)c1ccncc1 (stereo not given)		0.89
